Here are results for one molecule from PMC5662751.

Protein sequences, listed by entry. Tags and fused reporters are not part of them.
UniProt Q8CJG0: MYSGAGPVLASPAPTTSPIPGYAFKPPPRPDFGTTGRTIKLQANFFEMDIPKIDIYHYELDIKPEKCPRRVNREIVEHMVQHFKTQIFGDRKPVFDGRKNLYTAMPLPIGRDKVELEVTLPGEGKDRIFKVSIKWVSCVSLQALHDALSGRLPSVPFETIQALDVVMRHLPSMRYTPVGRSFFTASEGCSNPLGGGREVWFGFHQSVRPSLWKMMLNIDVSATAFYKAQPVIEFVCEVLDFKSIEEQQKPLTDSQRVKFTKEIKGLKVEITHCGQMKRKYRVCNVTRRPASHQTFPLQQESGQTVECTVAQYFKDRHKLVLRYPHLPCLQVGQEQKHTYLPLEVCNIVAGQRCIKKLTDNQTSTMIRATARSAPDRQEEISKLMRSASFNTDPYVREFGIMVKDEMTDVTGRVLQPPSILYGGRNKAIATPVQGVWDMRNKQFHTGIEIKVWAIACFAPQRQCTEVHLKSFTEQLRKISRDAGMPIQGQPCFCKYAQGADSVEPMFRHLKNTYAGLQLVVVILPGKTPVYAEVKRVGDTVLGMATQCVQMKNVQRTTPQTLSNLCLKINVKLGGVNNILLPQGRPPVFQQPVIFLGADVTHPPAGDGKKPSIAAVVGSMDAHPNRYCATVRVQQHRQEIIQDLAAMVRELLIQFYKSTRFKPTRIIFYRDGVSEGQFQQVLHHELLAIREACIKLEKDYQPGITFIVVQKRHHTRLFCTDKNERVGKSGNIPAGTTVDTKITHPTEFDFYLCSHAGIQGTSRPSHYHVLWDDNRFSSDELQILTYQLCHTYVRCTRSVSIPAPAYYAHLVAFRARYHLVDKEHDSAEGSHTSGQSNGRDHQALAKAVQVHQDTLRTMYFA

The target in the test is Argonaute 2 (Ago2), mouse, endogenous (mouse (endogenous in RAW 264.7 and P19)) (UniProt Q8CJG0). As to the kind of experiment: affinity purification with mass spectrometry; IP of endogenous Ago2 (anti-Ago2) from mouse RAW 264.7 cell extracts, undigested or totally digested with RNase A (10 mg/ml, 30 min, room temperature); label-free quantitative LC-MS/MS; IgG IP as control.

These are yes or no findings as the source states them, for the method shown. Binding seen in cells or lysates may run through a third protein. Here binding means that the protein was enriched with, or labelled near, the bait; the list need not be complete. No binding means not detected with the bait.

B1: Trans-Activation Responsive RNA-Binding Protein 2 (Trbp2), mouse, endogenous (protein, UniProt P97473 1-365)
chain: MSEEDQGSGTTTGCGLPSIEQMLAANPGKTPISLLQEYGTRIGKTPVYDLLKAEGQAHQPNFTFRVTVGDTSCTGQGPSKKAAKHKAAEVALKHLKGGSMLEPALEDSSSFSLLDSSPPEDTPVVAAEAAAPVPSAVLTRSPPMEMQPPVSPQQSECNPVGALQELVVQKGWRLPEYMVTQESGPAHRKEFTMTCRVERFIEIGSGTSKKLAKRNAAAKMLLRVHTVPLDARDGNEAEPDDDHFSIGVSSRLDGLRNRGPGCTWDSLRNSVGEKILSLRSCSVGSLGALGSACCSVLSELSEEQAFHVSYLDIEELSLSGLCQCLVELSTQPATVCYGSATTREAARGDAAHRALQYLRIMAGSK
As for B1, the binding entry is “no binding”.
